Where a name gives a salt, the structure may show the parent alone. The list shows a part of the results. Cut-off read from the data, not from the text of the source: active = 0.5 or less and inactive = the rest. Single values are uncertain, as repeats are few or missing.
These compounds were tested on SK-MEL-28 (assay: EEF2K protein level normalised to actin (western blot) after treatment (ratio (EEF2K/Actin)); higher = more EEF2K protein remaining (less EEF2K suppression)). Conditions: 5 µM; 24 h.

Compound	EEF2K protein level normalised to actin
O=c1[nH]c(=O)n(C2CCCO2)cc1F (stereo unspecified)	inactive: 0.73
CNC(=O)c1ccc(N2C(=S)N(c3ccc(C#N)c(C(F)(F)F)c3)C(=O)C2(C)C)cc1F [Enzalutamide (MDV3100)]	inactive: 1.56
COc1cc2ncnc(Nc3ccc(F)c(Cl)c3)c2cc1OCCCN1CCOCC1 [Gefitinib (ZD1839)]	inactive: 0.74
C[C@]12CC[C@@H]3c4ccc(O)cc4C[C@@H](CCCCCCCCC[S+]([O-])CCCC(F)(F)C(F)(F)F)[C@H]3[C@@H]1CC[C@@H]2O (stereo partly specified) [Fulvestrant]	inactive: 3.35
Nc1nc(F)nc2c1ncn2[C@@H]1O[C@H](COP(=O)(O)O)[C@@H](O)[C@@H]1O [Fludarabine Phosphate]	inactive: 0.59
Cn1cnc2c(F)c(Nc3ccc(Br)cc3F)c(C(=O)NOCCO)cc21	inactive: 2.57
CCOC(=O)c1ccc(OC(=O)CCCCCNC(=N)N)cc1 [Gabexate Mesylate]	inactive: 1.18
CCC1(O)C(=O)OCc2c1cc1n(c2=O)Cc2c-1nc1ccccc1c2CCNC(C)C (stereo unspecified) [Belotecan (CKD-602) hydrochloride]	inactive: 1.88
COc1cc([C@@H]2c3cc4c(cc3[C@@H](O[C@@H]3O[C@@H]5CO[C@@H](C)O[C@H]5[C@H](O)[C@H]3O)[C@H]3COC(=O)[C@H]23)OCO4)cc(OC)c1O [Etoposide]	inactive: 0.77
CN1CC[C@@H](NC(=O)Nc2ccc(C#N)cc2)C[C@@H]1c1nc2ccccc2[nH]1	inactive: 1.54
COc1ccc2cc1Oc1ccc(cc1)C[C@H]1c3cc(c(OC)cc3CCN1C)Oc1c(O)c(OC)cc3c1[C@H](C2)N(C)CC3 [(+)-Fangchinoline]	inactive: 0.71
CC(O)c1cc(C(=O)N[C@@H](C)Cn2ccc(-c3ccc(C#N)c(Cl)c3)n2)n[nH]1 (stereo partly specified) [Darolutamide (ODM-201)]	inactive: 2.2
CC(=O)OCC(CCn1cnc2cnc(N)nc21)COC(C)=O [Famciclovir]	inactive: 1.7
C=C(NC(=O)C(=C)NC(=O)c1csc(C2=N[C@@H]3c4csc(n4)[C@H]4NC(=O)c5csc(n5)[C@H]([C@](C)(O)[C@@H](C)O)NC(=O)[C@H]5CSC(=N5)/C(=C/C)NC(=O)[C@H]([C@@H](C)O)NC(=O)c5csc(n5)[C@]3(CC2)NC(=O)[C@H](C)NC(=O)C(=C)NC(=O)[C@H](C)NC(=O)[C@H]([C@@H](C)CC)N[C@@H]2C=Cc3c([C@H](C)O)cc(nc3[C@H]2O)C(=O)O[C@@H]4C)n1)C(N)=O [Thiostrepton]	inactive: 1.04
CCc1cc2c(cc1N1CCC(N3CCOCC3)CC1)C(C)(C)c1[nH]c3cc(C#N)ccc3c1C2=O	inactive: 0.83
Cc1c(-c2ccc(-c3ccccc3F)cc2)nc2ccc(F)cc2c1C(=O)O [Brequinar]	inactive: 0.95
O=C(O)c1cc(O)c(O)c(O)c1 [Gallic acid]	inactive: 1.58
CC(C)Cn1cnc2c(N)nc3ccccc3c21 [Imiquimod]	inactive: 1.7

Compound	EEF2K protein level normalised to actin
CNC(=O)[C@@H](NC(=O)[C@H](CC(C)C)[C@H](O)C(=O)NO)C(C)(C)C [Marimastat (BB-2516)]	inactive: 2.22
CC1(C)CCC(C)(C)c2cc(NC(=O)c3ccc(C(=O)O)cc3)ccc21 [Tamibarotene]	inactive: 1.19
C=CC[C@@H]1/C=C(\C)C[C@H](C)C[C@H](OC)[C@H]2O[C@@](O)(C(=O)C(=O)N3CCCC[C@H]3C(=O)O[C@H](/C(C)=C/[C@@H]3CC[C@@H](O)[C@H](OC)C3)[C@H](C)[C@@H](O)CC1=O)[C@H](C)C[C@@H]2OC [Tacrolimus (FK506)]	inactive: 0.96
O=C(O)CCCN1CCC(O[C@@H](c2ccc(Cl)cc2)c2ccccn2)CC1 [Bepotastine Besilate]	inactive: 0.52
CC[C@@]1(O)C(=O)OCc2c1cc1n(c2=O)Cc2cc3c(CN(C)C)c(O)ccc3nc2-1 [Topotecan HCl]	inactive: 5.93
O=NN(CCCl)C(=O)NC1CCCCC1 [Lomustine]	inactive: 0.69
COc1cc2nccc(Oc3ccc(NC(=O)Nc4cc(C)on4)c(Cl)c3)c2cc1OC [Tivozanib (AV-951)]	inactive: 3.28
Cn1cc(C2=C(c3cccc(N)c3)C(=O)NC2=O)c2ccccc21	inactive: 3.19
N.N.O=C([O-])C[O-].[Pt+2] [Nedaplatin]	inactive: 0.89
COc1cc2c3cc1Oc1c(OC)c(OC)cc4c1[C@@H](Cc1ccc(O)c(c1)Oc1ccc(cc1)C[C@@H]3N(C)CC2)N(C)CC4 [Berbamine]	inactive: 3.01
CC#CC(=O)N1CCC[C@H]1c1nc(-c2ccc(C(=O)Nc3ccccn3)cc2)c2c(N)nccn12 [Acalabrutinib (ACP-196)]	inactive: 1.69
N=C1CCCN1Cc1[nH]c(=O)[nH]c(=O)c1Cl [Tipiracil hydrochloride]	inactive: 2.22
CC(C)(C)c1nc(-c2cccc(NS(=O)(=O)c3c(F)cccc3F)c2F)c(-c2ccnc(N)n2)s1 [Dabrafenib Mesylate]	inactive: 1.28
COc1ccc(-c2cc(=S)ss2)cc1 [Anethole trithione]	inactive: 1.96
S=c1[nH]cnc2nc[nH]c12 [Mercaptopurine (6-MP)]	inactive: 0.58
CCOc1cc2ncc(C#N)c(Nc3ccc(OCc4ccccn4)c(Cl)c3)c2cc1NC(=O)/C=C/CN(C)C [Neratinib (HKI-272)]	inactive: 1.77
C[C@@H]1CCN(C(=O)CC#N)C[C@@H]1N(C)c1ncnc2[nH]ccc12	inactive: 1.2
COc1cc2ncnc(Nc3ccc(F)c(Cl)c3)c2cc1OCCCN1CCOCC1 [Gefitinib hydrochloride]	inactive: 1.21

An excerpt of these results, as a markdown table:

| Compound | EEF2K protein level normalised to actin |
| --- | --- |
| CNC(=O)[C@@H](NC(=O)[C@H](CC(C)C)[C@H](O)C(=O)NO)C(C)(C)C [Marimastat (BB-2516)] | inactive: 2.22 |
| O=C(O)CCCN1CCC(O[C@@H](c2ccc(Cl)cc2)c2ccccn2)CC1 [Bepotastine Besilate] | inactive: 0.52 |
| COc1cc2nccc(Oc3ccc(NC(=O)Nc4cc(C)on4)c(Cl)c3)c2cc1OC [Tivozanib (AV-951)] | inactive: 3.28 |
| COc1cc2c3cc1Oc1c(OC)c(OC)cc4c1[C@@H](Cc1ccc(O)c(c1)Oc1ccc(cc1)C[C@@H]3N(C)CC2)N(C)CC4 [Berbamine] | inactive: 3.01 |
| N=C1CCCN1Cc1[nH]c(=O)[nH]c(=O)c1Cl [Tipiracil hydrochloride] | inactive: 2.22 |
| CCOc1cc2ncc(C#N)c(Nc3ccc(OCc4ccccn4)c(Cl)c3)c2cc1NC(=O)/C=C/CN(C)C [Neratinib (HKI-272)] | inactive: 1.77 |

From the supplement of paper PMC8858631
